Data reported in US20210221848A1, “POLYMYXIN DERIVATIVES AND THEIR USE IN COMBINATION THERAPY TOGETHER WITH DIFFERENT ANTIBIOTICS” (priority 2014, published 2021).
For at least one compound, name, drawing or mass did not settle the structure. Numbered stars: 1 amine (or outer) side, 2 acyl side, 3 side chain; on linkers, the order of the positions; unused ones are H or OH. Bridge positions count the residues as written; N and C are the ends. Square brackets hold non-standard residues; d marks the D form. Peptide text beside a SMILES is read from it. * marks the point of attachment. X7 = CC(C)CN([C@@H](CN)C(=O)[*:2])[*:1]; aThr = C[C@H](O)[C@H](N)C(=O)O; X2 = CC(C)CN1CCNC[C@H]1C(=O)*; Dab = NCC[C@H](N)C(=O)O

Key:
K. pneumoniae = details: absence of a second agent, Table 6B
A. baumannii = details: absence of a second agent, Table 6B
P. aeruginosa = details: absence of a second agent, Table 6B
E. coli = details: absence of a second agent, Table 6B
[1] = system: E. coli strains with elevated MICs to Polymyxin B; assay: MIC against strains with elevated MICs to Polymyxin B; assay type: cell-based, Escherichia coli; details: Table 6D
Experimental: (§1) The inoculum was prepared by making a direct suspension of isolated colonies (selected from an 18-24 hour Mueller-Hinton agar plate) adjusted to the 0.5 McFarland standard. […] The assays were performed in duplicate. […] In cases where the duplicate values varied by less than 2-fold, the lower of the two values is reported. If a variation of greater than 2-fold was observed, the assay was considered non-valid. Several of the compounds were subjected to multiple tests, and where this is the case, the MIC reflects the modal value obtained.
(§2) The Further Synthesis Examples were tested against a range of Gram negative bacteria, and tested for HK-2 cell toxicity. All the worked examples, including the Synthesis and Further Synthesis Examples, were also tested against a range of Gram negative bacteria that are resistant to Polymyxin B (i.e. those strains where Polymyxin B has an elevated MIC value).

[2] = system: P. aeruginosa strains with elevated MICs to Polymyxin B; assay: as above; assay type: cell-based, Pseudomonas aeruginosa; details: Table 6D
Experimental: as §1, §2

[3] = system: K. pneumoniae strains with elevated MICs to Polymyxin B; assay: as above; assay type: cell-based, Klebsiella pneumoniae; details: Table 6D
Experimental: as §1, §2

[4] = system: Acinetobacter baumannii NCTC 13301; details: mouse lung, all doses (2.6, 8.6, 17.2 and 25.8 mg/kg free base), SC at 2, 6 and 10 h, 16 h
Experimental: On Day 0, animals were infected with 0.04 mL inoculum by intranasal instillation into mouse nostrils and were kept in an upright position on a string rack for ˜10 min post-infection. […] The vehicle control group (7 mice) was treated with 0.9% saline for injection at 2, 6 and 10 h post-infection.
Sixteen hours after infection, the mice were euthanized humanely. The lungs of each animal were harvested, homogenized and quantitatively cultured onto CLED agar for CFU determination. Decrease of the total CFU compared to control counts at 16 h post-infection was determined for each dose group.

[5] = system: A. baumanii strains with elevated MICs to Polymyxin B; assay: MIC against strains with elevated MICs to Polymyxin B; assay type: cell-based, Acinetobacter baumannii; details: Table 6D
Experimental: as §1, §2

SMILES | MIC, K. pneumoniae ATCC 4352 (K. pneumoniae) [micrograms/mL] | MIC, K. pneumoniae ATCC BAA-2146 (K. pneumoniae) [micrograms/mL] | MIC, A. baumannii ATCC BAA-747 (A. baumannii) [micrograms/mL] | MIC, A. baumannii NCTC 13424 (A. baumannii) [micrograms/mL] | MIC, P. aeruginosa ATCC 27853 (P. aeruginosa) [micrograms/mL] | MIC, P. aeruginosa CCUG 59347 (P. aeruginosa) [micrograms/mL] | MIC, E. coli ATCC 25922 (E. coli) [micrograms/mL] | MIC, E. coli NCTC 13441 (E. coli) [micrograms/mL] | also measured
CC(C)CC1CNCC1C(=O)N[C@H](C(=O)N[C@@H](CCN)C(=O)N[C@H]1CCNC(=O)[C@H]([C@@H](C)O)NC(=O)[C@H](CCN)NC(=O)[C@H](CCN)NC(=O)[C@H](CC(C)C)NC(=O)[C@@H](Cc2ccccc2)NC(=O)[C@H](CCN)NC1=O)[C@H](C)O (single isomer, unassigned) [Example D39, trans-4-(2-methylpropyl) pyrrolidine-3-carbonyl polymyxin B nonapeptide] | 0.125 | 0.25 | 0.5 | 0.25 | 0.25 | 1 | 0.125 | 0.5 | –
CC(C)C[C@@H]1NC(=O)[C@@H](Cc2ccccc2)NC(=O)[C@H](CCN)NC(=O)[C@@H](NC(=O)[C@H](CCN)NC(=O)[C@@H](NC(=O)[C@@H]2CNCCN2CC(C)C)[C@H](C)O)CCNC(=O)[C@H]([C@@H](C)O)NC(=O)[C@H](CCN)NC(=O)[C@H](CCN)NC1=O [Example D36, (S)-1-(2-methylpropyl)-piperazine-2-carbonyl polymyxin B nonapeptide] (X2-[aThr][Dab][Dab][Dab][dF]L[Dab][Dab]T; lactam 3-C) | 0.25 | – | 0.5 | 0.25 | 0.25 | 1 | 0.06 | 0.25 | MIC E. coli 058 ([1]; strain 058, elevated MIC to Polymyxin B): 16 micrograms/mL; MIC E. coli 059 ([1]; strain 059, elevated MIC to Polymyxin B): 16 micrograms/mL; MIC E. coli 060 ([1]; strain 060, elevated MIC to Polymyxin B): 16 micrograms/mL; MIC E. coli 061 ([1]; strain 061, elevated MIC to Polymyxin B): 32 micrograms/mL; MIC P. aeruginosa 065 ([2]; strain 065, elevated MIC to Polymyxin B): 16 micrograms/mL; MIC P. aeruginosa 066 ([2]; strain 066, elevated MIC to Polymyxin B): 32 micrograms/mL; MIC P. aeruginosa 067 ([2]; strain 067, elevated MIC to Polymyxin B): >256 micrograms/mL; MIC K. pneumoniae 062 ([3]; strain 062, elevated MIC to Polymyxin B): 256 micrograms/mL; MIC K. pneumoniae 063 ([3]; strain 063, elevated MIC to Polymyxin B): 128 micrograms/mL; MIC K. pneumoniae 064 ([3]; strain 064, elevated MIC to Polymyxin B): 32 micrograms/mL; MIC K. pneumoniae 655 ([3]; strain 655, elevated MIC to Polymyxin B): 128 micrograms/mL; efficacy compared with polymyxin B [4]: greater efficacy than observed with the equivalent dose of polymyxin B; MIC A. baumannii 053 ([5]; strain 053, elevated MIC to Polymyxin B): >256 micrograms/mL; MIC A. baumannii 056 ([5]; strain 056, elevated MIC to Polymyxin B): >256 micrograms/mL; MIC A. baumannii 068 ([5]; strain 068, elevated MIC to Polymyxin B): 64 micrograms/mL; MIC A. baumannii 070 ([5]; strain 070, elevated MIC to Polymyxin B): >128 micrograms/mL
CC(C)CN[C@@H](CN)C(=O)N[C@H](C(=O)N[C@@H](CCN)C(=O)N[C@H]1CCNC(=O)[C@H]([C@@H](C)O)NC(=O)[C@H](CCN)NC(=O)[C@H](CCN)NC(=O)[C@H](CC(C)C)NC(=O)[C@@H](Cc2ccccc2)NC(=O)[C@H](CCN)NC1=O)[C@H](C)O [Example D51, (S)-2-(2-methylpropylamino) 3-aminopropanoyl polymyxin B nonapeptide] (H-[X7][aThr][Dab][Dab][Dab][dF]L[Dab][Dab]T; lactam 4-C) | 0.125 | 0.5 | 1 | 1 | 0.5 | 1 | 0.5 | 0.5 | –
